For assay [1], the target named is beta-catenin, endogenously expressed (human (endogenous in HPAC and Capan-1)) (UniProt P35222). Kind of assay: co-IP; endogenously expressed beta-catenin and YEATS4 in HPAC cells and Capan-1 cells.
The target in assay [2] is GST-beta-catenin fusion protein (UniProt P35222). Kind of assay: pull-down; 5 ug purified GST-beta-catenin incubated with 500 ug HPAC whole cell lysate (50 mM Tris-Cl pH 7.5, 150 mM NaCl, 0.1% NP40) at 4 C over night; captured on glutathione-Sepharose-4B beads; washed three times with lysis buffer; only the target purified.
In another assay the target is Flag tagged beta-catenin (UniProt P35222). Kind of assay: co-IP; exogenously expressed Flag-beta-catenin and myc-YEATS4 in HPAC cells, immunoprecipitation assay.

The chains behind the UniProt entries cited, without tags or fusion partners.
UniProt P35222: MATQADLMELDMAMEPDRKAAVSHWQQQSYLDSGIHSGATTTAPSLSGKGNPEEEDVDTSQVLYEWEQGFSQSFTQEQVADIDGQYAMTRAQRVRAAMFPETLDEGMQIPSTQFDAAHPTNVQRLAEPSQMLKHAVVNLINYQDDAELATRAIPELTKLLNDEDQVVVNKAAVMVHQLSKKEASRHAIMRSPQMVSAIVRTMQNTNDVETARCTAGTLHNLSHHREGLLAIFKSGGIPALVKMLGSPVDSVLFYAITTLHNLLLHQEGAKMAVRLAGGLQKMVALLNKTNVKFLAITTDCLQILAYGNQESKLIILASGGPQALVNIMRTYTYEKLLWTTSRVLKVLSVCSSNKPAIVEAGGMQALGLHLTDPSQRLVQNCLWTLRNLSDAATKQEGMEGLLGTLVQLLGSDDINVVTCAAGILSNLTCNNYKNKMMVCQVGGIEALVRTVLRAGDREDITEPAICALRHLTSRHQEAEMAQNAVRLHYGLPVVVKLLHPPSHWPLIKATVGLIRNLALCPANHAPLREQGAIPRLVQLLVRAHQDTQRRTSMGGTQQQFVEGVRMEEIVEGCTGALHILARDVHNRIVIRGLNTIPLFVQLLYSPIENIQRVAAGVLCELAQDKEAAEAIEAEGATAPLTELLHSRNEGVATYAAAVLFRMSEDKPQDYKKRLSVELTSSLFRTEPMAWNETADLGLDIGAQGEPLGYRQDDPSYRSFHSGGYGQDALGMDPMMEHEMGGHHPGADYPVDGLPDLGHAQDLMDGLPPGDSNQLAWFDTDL
UniProt O95619: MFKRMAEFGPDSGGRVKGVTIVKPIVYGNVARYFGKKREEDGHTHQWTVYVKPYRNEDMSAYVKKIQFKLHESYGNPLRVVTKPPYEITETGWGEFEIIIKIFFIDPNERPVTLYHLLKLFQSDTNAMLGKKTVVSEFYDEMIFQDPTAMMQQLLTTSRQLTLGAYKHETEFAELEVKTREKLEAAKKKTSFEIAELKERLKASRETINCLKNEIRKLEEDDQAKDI

For two substances, binding results are on record in publication PMC5421922.

No constants are given. Whether binding was seen depends on the method and setting. Binding seen in cells or lysates may run through a third protein. Some entries that bind do so weakly or less than the wild type.

“YEATS4, endogenously expressed (from UniProt O95619 1-227)”: the binding entry in assay [1] and in assay [2] was “binds” in each case.
On to “myc tagged YEATS4 (from UniProt O95619 1-227)”, for which the binding result in the assay with Flag tagged beta-catenin is “binds”.
